For 1 molecule, binding results are on record in publication PMC2613030.

These are yes or no findings as the source states them, for the method shown. In cells and extracts the contact can be indirect. A result given as binding can be weak or reduced; the word gives no strength.

In this assay the target is mosquito salivary gland secreted protein SG1 (not stated (endogenous in mosquito salivary glands; An. gambiae and An. stephensi colonies kept)). Kind of assay: cross-linking; double-derivatized SM1 (10 µg/ml in PBS) incubated with freshly dissected salivary glands 1 h at 4°C in the dark, washed, UV 30 min, glands lysed (0.1% NP40), capture on streptavidin-agarose beads, SDS-PAGE under reducing conditions, bands identified by LC/MS/MS; only the binder purified.

Take PCQRAIFQSICN [double-derivatized SM1 peptide]: the binding entry is given as “binds”.
